Experimental data: PubChem BioAssay AID504793 (Drosophila RNAi Screening Center, 2011)

Aim: 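Genes required for cells to halt at G2/M after double-strand DNA breaks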 (primary screen)
Cell system: Drosophila S2R+ cells
Reagent: long dsRNA against Drosophila genes, about 0.25 µg dsRNA per well
Duration: 4 days of dsRNA, then 4 hours of drug before read-out
Treatment: doxorubicin 0.5 µM for 4 hours to cause double-strand breaks, in cells also given a low, harmless dose of dsRNA against nbs to sensitise the assay
Measured: 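Per-well count of mitotic cells stained for phospho-histone H3 after doxorubicin exposure, used as mitotic index; counts are raw and not normalised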
Reading the numbers: mitotic cells: higher = more cells in mitosis, weaker G2 arrest
Hit rule: 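a call needs confirmation in secondary tests, with other dsRNAs and a check of mitotic timing without damage, not just a high primary count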
Meaning of the calls: active = confirmed in follow-up tests; inactive = not confirmed
In all, the deposit lists about 23,000 reagents; below is an unselected part of those with a known target gene and a result. Of all reagents, 62 (0.27%) are marked active. 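Calls come from follow-up tests whose scores are not deposited, so confirmed genes may have low counts here; counts are not normalised per plate.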 The raw values are shown without normalisation. Unmarked entries are inactive.

How did the screen score HmgZ (HMG protein Z) [DRSC03888]?
mitotic cells, replicate 1: 10

Which result is listed for HmgZ (HMG protein Z) [DRSC04620]?
mitotic cells, replicate 1: 7

With CG13561 [DRSC04199], what was measured?
mitotic cells, replicate 1: 8

With koi (klaroid) [DRSC04980], what does the deposit list?
mitotic cells, replicate 1: 9

What did the screen give for boly (borrelly) [DRSC21629]?
mitotic cells, replicate 1: 12

With Miro (Mitochondrial Rho) [DRSC15795], how do the results read?
mitotic cells, replicate 1: 4

What is on record for CG12589 [DRSC12215]?
mitotic cells, replicate 1: 12

With Polr2C (RNA polymerase II subunit C) [DRSC03415], how do the results read?
mitotic cells, replicate 1: 12

For Polr2C (RNA polymerase II subunit C) [DRSC23584], what does the deposit list?
mitotic cells, replicate 1: 23

With Vps13D (Vacuolar protein sorting 13D) [DRSC09818], what does the deposit list?
mitotic cells, replicate 1: 2

What did the screen give for Vps13D (Vacuolar protein sorting 13D) [DRSC09819]?
mitotic cells, replicate 1: 2

For Nle (Notchless) [DRSC00763], how do the results read?
mitotic cells, replicate 1: 2

What did the screen give for CG42233 [DRSC14328]?
mitotic cells, replicate 1: 5

How did the screen score CG42233 [DRSC15416]?
mitotic cells, replicate 1: 9

Which result is listed for CG42233 [DRSC24948]?
mitotic cells, replicate 1: 4

How did the screen score CG42233 [DRSC26880]?
mitotic cells, replicate 1: 6

2 of these entries in another layout:
{"Target gene":"CG42233","amplicon":"DRSC14328","mitotic cells, replicate 1":5}
{"Target gene":"CG42233","amplicon":"DRSC15416","mitotic cells, replicate 1":9}
